In all, about 53,000 sequences went through this assay and about 3,700 (7%) were called active.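 The calls were made as follows: active = gene knockdowns whose robust z-score for IL-1 alpha signal is at least 2 or at most -2, so actives lie on both sides; inactive = the rest.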 This is one part of the list.

This passage reports z-score results from PubChem BioAssay AID1508600 (Functional Genomics Laboratory (NCATS/FGL), 2020).

The nature of the assay: Components of the Cytosolic LPS Sensing Pathway: Gene Identification via Genome-wide siRNA Screen.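 Also: robust z of the log signal after scaling to non-targeting control siRNA wells of the plate.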 Particulars: RAW264.7 macrophages, IL-1a HTRF, actives lie on both sides, screened at 100 nM (by protocol), cells primed 5 h with Pam3CSK4 first. In short, it runs like this:
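IL-1a HTRF of supernatants after 24 hour LipidA transfection of Pam3CSK4-primed (5 hours) RAW264.7 cells, 48h post-siRNA transfection (100 nM). Scores: percent of plate negative-control median, then log-based robust z-score.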
A general note: Time-resolved FRET reads energy transfer from a long-lived donor to a nearby acceptor.
With GCUCCUACUGUCCAGCAAUTT against Dusp18, the z-score is inactive: -0.642.

On to CGAGUAAGUUCAAUAGACCTT against Olfr954, for which the z-score was inactive: -0.792.

Regarding GGACAAGUUCAGCUACAUCTT against Ranbp9, the z-score was inactive: -1.05.

Consider GGCUAUUUCUACCUGUAUCTT against Otop2, for which the z-score was inactive: -0.584.

Regarding CCUAUCAUAACGGUGAUAATT against Ddb1, the z-score is inactive: -0.423.

Turning to GGAUAAACAACAAUGAGAATT against Btg4, the z-score is inactive: -1.72.

As for GGUCCAGCACGUCAAAGACTT against Myo1f, the z-score was inactive: 0.301.

GGCAGGCUGUUUGAUCAAGTT against Cyp2a12: the z-score is inactive: 1.01.

Turning to GGAGUUUGUCAACGAGGUGTT against Arl10, the z-score was inactive: -0.75.

Take GGCUGUGUAUGCUGAUGUCTT against Cops7a: the z-score is inactive: 0.0658.

For the sequence CGUGGUCAGUAAGAUUUAUTT against Rragd, the z-score is inactive: 1.45.

GCAACUUUUAAUUGGUCUATT against Agrn: the z-score was inactive: -0.537.

CCAAAAGCUUUUGUGUUCATT against Pnpla8: the z-score is inactive: 0.358.

Turning to GGCAUAUUGUUUCAUUUUGTT against Rlbp1, the z-score is inactive: -1.19.

Consider GGAAACUGAGUUAGAUGCATT against Daglb, for which the z-score is inactive: 0.562.

With GGACAGCAGAAGGUCUCAUTT against Lilra6, the z-score is inactive: -0.358.

With GGACUUGGUUUAUGAAACATT against Kif9, the z-score is inactive: -1.33.

GGGAUUAAGGAUAAAGUUGTT against Usp28: the z-score was inactive: -0.452.

As for GGAACAAGAAACCACAAUGTT against Agpat1, the z-score is inactive: 0.281.

For the sequence GGCUUUAAUGCCUGUAUUATT against Ilvbl, the z-score is inactive: -0.185.

As to GGACCCAGUCAUCUAGUAUTT against Elmo2, the z-score was inactive: 0.983.

On to GGCUAAAGGUGUUGAUUUUTT against Slitrk6, for which the z-score is inactive: 0.744.

Turning to GCAAGAUUUAUCCCAGUCGTT against Rnf2, the z-score was inactive: -1.83.

On to CCAGACCAUUAACUUGAUUTT against Lsm8, for which the z-score was inactive: -0.739.

For CCACGGGAGACAAGAUUCUTT against Hmbs, the z-score is active: 3.18.

For GGCAGAUUCUAAAUAUAGCTT against Itga9, the z-score is inactive: -0.52.

GGCAAGUAUGUGUCCUUUGTT against Fhl3: the z-score is inactive: -1.84.

On to GGAGGUGAUGCAGAUGCUGTT against Gpi1, for which the z-score is active: 3.06.

In the case of GGGCGAGGAAGAAGAAUCUTT against Atad2b, the z-score is inactive: 0.648.

Turning to GGCUACCCAGGGAAUCAAGTT against Snapc4, the z-score was inactive: 0.629.

For GGCCUAUUUUAUCCAUAGUTT against Olfr623, the z-score is inactive: 0.194.

For the sequence GGAAGAAAAAGAUGAGAAATT against Hrc, the z-score was inactive: 0.394.

Take GCCUUUGUGGACCAUCCAATT against Thy1: the z-score was inactive: -0.954.

Consider CCUUCAAACCUUUAAGCUUTT against Kcnk13, for which the z-score was inactive: 0.573.

For CGGCGAUGGAAAAAAAUUUTT against Tmem178, the z-score was inactive: 1.04.

As for CCAUACUGUCAUAGCCCAATT against Olfr646, the z-score is inactive: -0.425.

With CGGAAAGGAGCUAAAUGGCTT against Boc, the z-score is inactive: -0.437.

With GGCUACAAGGAGAAGUUUGTT against Traf3, the z-score is active: 2.02.

GCAGGAUUAUGACACGUAUTT against Dgkq: the z-score was inactive: 1.13.

In the case of GGGAACAUGCUCAUUGCAGTT against Olfr96, the z-score is inactive: 1.42.

As to GCCAGUCCUGAUAGCAUCATT against Rhox6, the z-score is active: -3.2.

On to CGAGCCUCUGUGAUAUCCATT against Cst11, for which the z-score was active: -2.69.

On to GGACUACGAAUACCCAUCGTT against Cck, for which the z-score is inactive: -0.42.

As for GUGACACUGCUGGGAAACATT against Olfr459, the z-score was inactive: -0.972.

With GCAAUAUUUGGGCUAUUAUTT against Ss18, the z-score is inactive: -0.588.

As for CGUCAAUUCACACCAUUCATT against Gsk3a, the z-score is inactive: -1.25.

For “GGCAAUCAUGUGGACUUCATT against C230071H18Rik”, the z-score is inactive: 0.714.

Turning to CCUGUAUUGGGAACAAUGUTT against Asphd2, the z-score was inactive: 1.16.

“GCUUUUCGGGCAGGAGAGUTT against 1700034I23Rik”: the z-score is inactive: 0.396.

For GGGUACCUCGUGGUACAUUTT against Rapgef3, the z-score is inactive: 0.352.

Regarding CCAAGUAGGUCCUAGUCUATT against Cfap126, the z-score was inactive: -0.648.

Consider CGGAGGAGAUAUUUAACCATT against Mtif3, for which the z-score was inactive: -0.294.

Turning to CCAGCUAUGAUUUACAUCUTT against Tdpoz1, the z-score is inactive: -0.0659.

On to GAUCAAAGAAACUCCUCCCTT against Zbtb25, for which the z-score is inactive: 1.26.

For GGCAAAAUAUUGCACAGCGTT against Tsga10, the z-score was inactive: -0.474.

For the sequence GCUCCUAAAACAUGAGAAUTT against Cdk9, the z-score is inactive: -1.2.

Take GGUAAUGAAUAGGAAACUCTT against Ostm1: the z-score was inactive: -0.773.

As to GCCUCUCGGUUAAUUGAUCTT against Lyve1, the z-score is inactive: -0.404.

Turning to GGAUUUCUUUGUGGAGCCCTT against Gm11961, the z-score was inactive: -1.18.

On to GGAGUGUGUAAAGACAUAATT against Rnase2a, for which the z-score is inactive: -0.685.

Consider GCGGUUCGCUGUUUGUUUCTT against Zbtb11os1, for which the z-score is active: 2.54.

GCGCAUUAAGGCAGAAAAGTT against Chaf1a: the z-score is inactive: -0.931.

For CCAGGAAGUUACAAUUCAATT against Ccpg1, the z-score is inactive: 0.181.

With CGGUAUCUUGGUCAACCUGTT against Naaa, the z-score was inactive: 0.955.

On to GGGAUAGCUGUCACCUUCUTT against Rad9a, for which the z-score was inactive: -0.742.

Regarding GCUGUUUUGAGGAGCCUUCTT against Zfp410, the z-score is inactive: -0.962.

With GCUCACUGAAUCUCUACAUTT against Amph, the z-score was inactive: -1.25.

As for GGGAUACUUUUUAUUCAGGTT against Nmu, the z-score was inactive: -0.0461.

Consider CGAGGUCAUCAUCAUCGAATT against Kyat1, for which the z-score was inactive: -0.104.

Regarding GGAAGUCCGUGUUAAGAUUTT against Adh7, the z-score was inactive: -0.755.

Turning to GGCUGUCCGGUUAAAUCCATT against Ifit1, the z-score was inactive: 0.261.

In the case of GCGACAUAAACAUUGUGGUTT against Adamts18, the z-score is inactive: 1.32.

As to GAGAGUGUGCUUCACACACTT against Olfr646, the z-score was inactive: -0.339.

As to GGUAUUUUGUAGCACUUAATT against Fgf20, the z-score is inactive: 0.00656.

Consider CCCUGUAACCAAUAAGAAGTT against Snrpa1, for which the z-score was inactive: -0.401.

Regarding GGGUUGGAGAUAGGUUUUUTT against Rundc1, the z-score is inactive: 1.53.

As for CGGAUGCCGCUGAUAAGAUTT against Pofut2, the z-score is inactive: 0.215.

As for GGCAGUUAGAUGUCAGUGCTT against Edn1, the z-score was inactive: 0.78.

With GGUCAAUACCAUGUGUAUUTT against Rev1, the z-score is inactive: 0.617.

Regarding GCCUACUUGGAUGUUAAUGTT against Pappa, the z-score is inactive: 0.964.

With CCCAACUAUACUGUCUACUTT against Slc22a6, the z-score is inactive: 0.988.

Turning to GGAUCUCCAGAGCAGAAAATT against Nckap5, the z-score is inactive: -1.64.

For GGACUUUUCUUUUGGAAGGTT against Nbl1, the z-score was inactive: -0.08.

For the sequence GCAUUUGGUUCGACAUAUATT against Pcnx, the z-score was inactive: -0.187.

In the case of GGUUGAUGGGUAAUAAACUTT against Nfatc4, the z-score is active: -2.16.

Turning to CCUGGUACCUCGAUUCCAUTT against Lcn9, the z-score was inactive: 0.762.

On to GGAAUCCAUGCAGAAAUAATT against Pcdhga6, for which the z-score was inactive: 0.681.

For the sequence GGCCAUCCAAGCAUGAGUUTT against Rbfa, the z-score was inactive: 1.37.

On to GGGCAUAGACAGUACCAGUTT against Clec2m, for which the z-score was active: -2.04.

As for CCAAGUUUCAGAAGGAUUATT against Niban1, the z-score was inactive: -0.0593.

For the sequence UGCCGCUGCUGAUCCUUACTT against Rbfox3, the z-score is inactive: -1.87.

As to GGAGAAGAUUUUCUGUAUCTT against Atp13a5, the z-score is inactive: 0.545.

Turning to GGUUUCAGAUGAGAAUGUATT against Mybpc3, the z-score was inactive: -0.561.

GCAGUUGUCACUGGCAAGUTT against Aqp2: the z-score is active: 2.21.

Regarding GGAAUUGAACAAAACCAUCTT against Slfn9, the z-score is inactive: 1.32.

On to GCAUCUCGCCACAUCUUGATT against Prm1, for which the z-score was inactive: -0.54.

For GCUUGGAGGAUACAUUCACTT against Gjb2, the z-score was inactive: 1.76.

Consider CCGAAGGUGUUCAAAAUUCTT against Mbl2, for which the z-score is inactive: 1.32.

For GGCCUUCCUUGACCAAUCUTT against Ren1, the z-score was active: -2.11.

Consider GCAGCACGUUGAAAUGAGUTT against Dpp4, for which the z-score was inactive: -1.62.

With GGUGGUUGUUGAAUAUAAUTT against Habp4, the z-score was inactive: 0.303.

For the sequence GGUCAUAAGAAGCUCAAGATT against Serpinb9d, the z-score was inactive: 0.268.

Turning to GGGUUGCCAAGACUUGAUATT against Cd177, the z-score was inactive: -1.06.

On to GGAUGAAACUCCUACCACATT against Rnf112, for which the z-score is inactive: -0.785.

As to CGAUGAUUCCAAGUUUGGCTT against Pinx1, the z-score was inactive: -0.291.

For the sequence GCUACUUAAGGGUUUGGAUTT against Pcdhb3, the z-score was active: 4.67.

Consider GGCAGGUGUCAGAAAUUUCTT against Pisd, for which the z-score was inactive: -0.357.
